Measurements reported in PubChem BioAssay AID504834 (National Center for Advancing Translational Sciences (NCATS), 2011).
Screen size: about 320,000 compounds; about 22,000 (6.9%) were called active. Inconclusive means that the source gave no clear call. Such entries were picked first, then a sample of the others. Calls follow the shape of the dose curve; as a rule, active = well fitted inhibition curve with a large enough effect; inconclusive = small, poorly fitted or top-dose-only effect, or another doubt; inactive = no such curve, though single readings can be large or run the other way. Potencies of inconclusive entries are doubtful fits and often do not repeat.

assay: Primary qHTS for delayed death inhibitors of the malarial parasite plastid, 96 hour incubation; details: P. falciparum luciferase reporter growth; series mostly up to 28.7 µM; activity change, negative = inhibition: at the top concentration
In short: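 P. falciparum expressing integrated firefly luciferase, in erythrocytes at 2% hematocrit, 0.05% parasitemia, incubated with compounds 96 h at 37 C, 5% CO2. Growth inhibition read as loss of luminescence; two-generation exposure targets delayed-death apicoplast inhibitors.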
% is scaled to controls: 0 for no effect and ±100 for the full control effect; potency is read from the fitted curve at half-maximal effect.

SMILES | Potency | activity change, negative = inhibition
CCSc1ccc([C@@H]2[C@@H]3C(=O)N(CC)C(=O)[C@@H]3[C@]3(C(=O)OC)CCCN23)cc1 | inconclusive: 18.5 µM [inhibitor, single point] | –
CCC(C)C1NC(=S)N(C2CCCCC2)C1=O (stereo not drawn) | inconclusive: 4.15 µM [inhibitor, partial curve, poor fit] | –
COc1cc(C)c(CN2CCN(CC(=O)Nc3ccccc3C(=O)NC3CC3)CC2)cc1OC | inconclusive: 11.7 µM [inhibitor, single point] | –
CC1CC(C)CN(C(=O)CSc2nnc(-c3ccc(Cl)cc3)o2)C1 (stereo not drawn) | – | inactive: 9.47%
COC(=O)c1c(NC(=O)CN2CCC(C)CC2)c2c(C)cccc2n1C | inconclusive: 18.5 µM [inhibitor, single point] | –
CN(CCCNC(=O)c1cc2c(Cl)nc3ccccc3c2s1)Cc1ccccc1 | inconclusive: 18.5 µM [inhibitor, single point] | –
CCC1CCCCN1CCCNC(=O)C1CC(=O)N(CCc2ccccc2)C1 (stereo not drawn) | inconclusive: 18.5 µM [inhibitor, single point] | –
CS(=O)(=O)c1ccc(NC(=O)C2CC(=O)N(c3ccc4c(c3)OCCO4)C2)cc1 (stereo not drawn) | – | inactive: -7.33%
COc1cccc(C2OC(=O)c3ccccc3N2C(C)=O)c1OC(C)=O (stereo not drawn) | active: 11.7 µM | –
O=C(N/N=C/c1ccc(OCCCF)cc1)c1cc(OCC(F)(F)F)ccc1OCC(F)(F)F | inconclusive: 4.15 µM [inhibitor, single point] | –
CCC(=O)Nc1nnc(S(=O)(=O)N(C)c2ccccc2)s1 | inconclusive: 2.33 µM [inhibitor, full curve] | –
COc1cccc(-c2nc(-c3ccc4c(c3)-c3ccccc3S4(=O)=O)c(-c3ccccc3)[nH]2)c1OC | inconclusive: 13.1 µM [inhibitor, single point] | –
CCN(CC)C(=O)CN1CCC(n2c(C)nc3cc(C(F)(F)F)ccc32)CC1 | inconclusive: 5.86 µM [inhibitor, partial curve, poor fit] | –
CC(C)(C)c1cc(CCC(=O)NCC2CCCO2)cc(C(C)(C)C)c1O (stereo not drawn) | inconclusive: 9.28 µM [inhibitor, single point] | –
O=C(CN1C(=O)NC2(CCCC2)C1=O)Nc1ccc(F)c([N+](=O)[O-])c1 | inconclusive: 14.7 µM [inhibitor, single point] | –
Cc1cc([N+](=O)[O-])nn1CC(=O)NCc1cccs1 | active: 8.28 µM | –
Cc1ccc(C)c(NS(=O)(=O)c2csc(C(N)=O)c2)c1 | inconclusive: 20.8 µM [inhibitor, partial curve, poor fit] | –
COc1ccc(S(=O)(=O)NCCN2CCOCC2)cc1Br | active: 10.4 µM | –
CSCCC(NC(=O)C1CCC(C)CC1)C(=O)Nc1ccc(NC(C)=O)cc1 (stereo not drawn) | inconclusive: 13.1 µM [inhibitor, partial curve, poor fit] | –
COc1ccc(NC(=O)Cn2nnc(C(=O)NCCc3ccccc3)c2N)cc1 | inconclusive: 1.31 µM [inhibitor, full curve] | –
Cc1nn(-c2ccccc2)c2c1C(c1ccc(F)cc1)C(C#N)=C(N)O2 (stereo not drawn) | – | inactive: 52.7%
CC1CCCN(C(=O)C2CCN(S(=O)(=O)c3cccc4cccnc34)CC2)C1 (stereo not drawn) | inconclusive: 18.5 µM [inhibitor, single point] | –
COc1ccc2oc(C(=O)NCC(Cc3ccccc3)N(C)C)c(C)c2c1 (stereo not drawn) | inconclusive: 18.5 µM [inhibitor, single point] | –

SMILES | Potency | activity change, negative = inhibition
Cc1cccc(C)c1OCC(O)CN1CCN(c2ccccn2)CC1 (stereo not drawn) | – | inactive: -7.28%
Cc1ccccc1C(=O)c1cccn1CC(=O)NCC(C)c1ccccc1 (stereo not drawn) | – | inactive: -14%
Cc1cc(N)nc(C)c1C#N | – | inactive: 38.4%
O=C(Nc1ccc(S(=O)(=O)N2CCOCC2)cc1)c1cc(S(=O)(=O)N2CCOCC2)ccc1Cl | inconclusive: 13.1 µM [inhibitor, partial curve, poor fit] | –
O=C(CSc1nc(C2CC2)n(-c2ccccc2)n1)NCc1ccco1 | inconclusive: 18.5 µM [inhibitor, single point] | –
Cc1cc([N+](=O)[O-])c(C)cc1-c1ccc(/C=N/NC(=O)Cn2nnnc2N)o1 | inconclusive: 18.5 µM [inhibitor, single point] | –
O=C(NCCCCCNC(=O)c1cccnc1)c1cccnc1 | – | inactive: 18.3%
O=C(NC1CC1)C1=C[C@@H](c2csc3ccccc23)C[C@@H](OCCCCO)O1 | active: 13.1 µM | –
CCOc1ccc(NC(=O)CSc2nnnn2-c2ccc(C(N)=O)cc2)cc1 | – | inactive: 18.3%
CC(=O)N[C@@H](C)c1nc2ccccc2n1CCNC(=O)[C@H]1CCCN1c1nc(CN2CCCCC2)cs1 | – | inactive: 52.8%
O=C(c1ccco1)c1coc2c1cc(O)c1ccccc12 | inconclusive: 18.5 µM [inhibitor, single point] | –
COc1ccc(-c2cc(C3CCN(c4cc(Cl)nc(N)n4)CC3)[nH]n2)cc1 | inconclusive: 18.5 µM [inhibitor, single point] | –
O=c1cc(CN2CCN(C/C=C/c3ccccc3)CC2)c2cc(O)c(-c3ccccc3)cc2o1 | active: 1.04 µM | –
CCN1CCc2c(OCC(=O)N3N=C(c4cccs4)CC3c3ccc(F)cc3)cccc2C1=O (stereo not drawn) | inconclusive: 4.15 µM [inhibitor, single point] | –
Cc1cnc(NC(=O)CSc2ncc(-c3ccccc3)n2Cc2ccco2)s1 | inconclusive: 18.5 µM [inhibitor, single point] | –
Cn1c(O)c(/C=N/NC(=O)c2cc3ccccc3cc2O)c2ccccc21 | inconclusive: 6.57 µM [inhibitor, partial curve, poor fit] | –
CCCCN(C(=O)Cc1cccs1)c1nnc(-c2cccnc2)s1 | – | inactive: -17.5%
CCC(C)[C@H]1CNC(=S)N1CCc1cccc2ccccc12 (stereo partly drawn) | inconclusive: 18.5 µM [inhibitor, single point] | –
CCOc1ccc(OCCCC(=O)NCCOc2ccccc2OC)cc1 | inconclusive: 0.294 µM [inhibitor, partial curve, poor fit] | –
COc1c2c(cc3c1C(CC(O)Cc1ccccc1)N(C)CC3)OCO2 (stereo not drawn) | inconclusive: 10.4 µM [inhibitor, single point] | –
COc1ccc(NC(=O)c2ccc(Cc3ccc(C)cc3)o2)cc1 | inconclusive: 10.4 µM [inhibitor, single point] | –
Cc1nnc(SCC(=O)Nc2ccc3c4c(cccc24)CC3)n1C | – | inactive: -14.5%
COc1ccc(C(C)=O)cc1COC(=O)c1c(C)nn(-c2ccccc2)c1C | inconclusive: 11.7 µM [inhibitor, partial curve] | –

SMILES | Potency | activity change, negative = inhibition
Cn1cccc1/C=N/N1CCN(c2ccccn2)CC1 | – | inactive: 25.1%
COc1ccc(C2Nc3ccccc3C(=O)N2Cc2ccco2)cc1COc1ccc(NC(C)=O)cc1 (stereo not drawn) | active: 10.4 µM | –
CCN(CC)CCNC(=O)c1cc2c(-c3cccc(OC)c3)nn(C)c2s1 | inconclusive: 11.7 µM [inhibitor, single point] | –
Cc1cccc(C)c1NC(=O)CCCSc1nnc(-c2ccc(Cl)cc2)n1-c1ccccc1 | inconclusive: 9.28 µM [inhibitor, single point] | –
O=c1c(Cc2ccc(Cl)cc2)c(O)ccn1Cc1ccncc1 | – | inactive: -19.2%
Cc1cccc(N(Cc2ccccc2)C(=O)c2ccc(C)c(S(=O)(=O)N3CCOCC3)c2)c1 | inconclusive: 0.828 µM [inhibitor, full curve, poor fit] | –
O=C(C1=NNCC1c1ccccc1)C1OC1c1ccccc1 (stereo not drawn) | inconclusive: 18.5 µM [inhibitor, single point] | –
CCCCCNC(=O)Cc1cc(=O)[nH]c(=O)[nH]1 | – | inactive: 22.3%
O=S(=O)(c1cccc(-c2nn3c(-c4ccncc4)nnc3s2)c1)N1CCOCC1 | inconclusive: 18.5 µM [inhibitor, single point] | –
COc1cc(/C=C/C(=O)O)ccc1OCc1ccc([N+](=O)[O-])cc1 | inconclusive: 10.4 µM [inhibitor, single point] | –
O=C(CCSc1ccccc1)N1CCN(c2ccccc2F)CC1 | – | inactive: 18.7%
CCOC(=O)Cc1csc(N(C)C)n1 | inconclusive: 13.1 µM [inhibitor, single point] | –
CCc1ccc(-c2nc(CS(=O)CC(=O)NCc3ccco3)c(C)o2)cc1 (stereo not drawn) | inconclusive: 18.5 µM [inhibitor, single point] | –
Cc1nn(C(C)C(=O)NCc2ccco2)c(=O)c2nn(-c3ccccc3)c(C)c12 (stereo not drawn) | inconclusive: 18.5 µM [inhibitor, single point] | –
O=C(CN1C(=O)NC2(CCCCCC2)C1=O)NCCc1ccc(F)cc1 | inconclusive: 4.15 µM [inhibitor, partial curve] | –
COc1cc(/C=N/NC(=O)CC(=O)NC2CCCCC2)ccc1O | inconclusive: 4.15 µM [inhibitor, single point] | –
CN(C)S(=O)(=O)N(CC(=O)Nc1ccccc1F)c1ccccc1 | inconclusive: 10.4 µM [inhibitor, single point] | –
COc1ccc(C(=O)CCc2ccccc2O)c(OC)c1 | – | inactive: 46.9%
COc1ccc(C(=O)NC(=O)CSc2nnc(-c3ccco3)n2-c2ccccc2)cc1 | inconclusive: 16.5 µM [inhibitor, single point] | –
COc1ccc(C(CNC(=O)CNC(=O)c2ccccc2Cl)N2CCCC2)cc1 (stereo not drawn) | inconclusive: 10.4 µM [inhibitor, partial curve] | –
COc1ccccc1CCNC(=O)C(=O)NCC1OCCN1S(=O)(=O)c1ccc(OC)c(OC)c1 (stereo not drawn) | inconclusive: 5.22 µM [inhibitor, partial curve] | –
COc1cc(NC(=O)CN(C)CCOc2ccccc2)c(C)cc1[N+](=O)[O-] | inconclusive: 7.38 µM [inhibitor, partial curve, poor fit] | –
